The target of experiment [1] is Cerulean.HEXIM1 and Venus.HEXIM1 (two differently tagged copies of wild-type HEXIM1) (UniProt O94992). The experiment is described as follows: FRET or BRET; sensitized emission FRET microscopy in HeLa 48 hr after transfection of Cerulean-HEXIM1 and Venus-HEXIM1 with Tip110, sh-Tip110 or controls; normalized FRET (NFRET) by PixFRET. (In general: Bioluminescence resonance energy transfer reports proximity on the nanometre scale.)

Amino acid sequences for entries named in this document (tags omitted).
UniProt O94992: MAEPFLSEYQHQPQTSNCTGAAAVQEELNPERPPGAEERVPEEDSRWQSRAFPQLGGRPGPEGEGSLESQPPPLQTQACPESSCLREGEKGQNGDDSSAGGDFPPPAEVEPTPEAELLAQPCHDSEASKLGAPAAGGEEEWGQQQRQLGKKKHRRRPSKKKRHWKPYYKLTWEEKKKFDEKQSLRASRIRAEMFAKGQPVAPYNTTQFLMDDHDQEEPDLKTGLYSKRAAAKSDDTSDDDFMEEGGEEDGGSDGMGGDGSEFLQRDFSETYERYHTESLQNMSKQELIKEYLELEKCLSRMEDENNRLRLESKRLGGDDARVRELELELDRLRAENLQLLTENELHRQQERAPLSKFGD

Experiment [2] deals with HEXIM1, endogenous (human (endogenous in 293T)) (UniProt O94992). Nature of the experiment: SDS-PAGE and Western blot (monomer and dimer bands); 293T lysates (whole cell, cytosol, nuclear matrix, chromatin-binding, nuclear) of cells with Tip110 over-expression or knockdown or treated with 100 uM GSH for 2 hr; sample buffer with or without DTT; Western blot with anti-HEXIM1.

For experiment [3], the target named is purified recombinant HEXIM1 protein (UniProt O94992). Nature of the experiment: SDS-PAGE and Western blot (monomer and dimer bands); data not shown; purified recombinant HEXIM1 treated with or without GSH; both purified. (A western blot detects proteins with antibodies after separation by electrophoresis.)
In another experiment the target is T1, recombinant Tip110 His (UniProt Q15020).
T1 sequence: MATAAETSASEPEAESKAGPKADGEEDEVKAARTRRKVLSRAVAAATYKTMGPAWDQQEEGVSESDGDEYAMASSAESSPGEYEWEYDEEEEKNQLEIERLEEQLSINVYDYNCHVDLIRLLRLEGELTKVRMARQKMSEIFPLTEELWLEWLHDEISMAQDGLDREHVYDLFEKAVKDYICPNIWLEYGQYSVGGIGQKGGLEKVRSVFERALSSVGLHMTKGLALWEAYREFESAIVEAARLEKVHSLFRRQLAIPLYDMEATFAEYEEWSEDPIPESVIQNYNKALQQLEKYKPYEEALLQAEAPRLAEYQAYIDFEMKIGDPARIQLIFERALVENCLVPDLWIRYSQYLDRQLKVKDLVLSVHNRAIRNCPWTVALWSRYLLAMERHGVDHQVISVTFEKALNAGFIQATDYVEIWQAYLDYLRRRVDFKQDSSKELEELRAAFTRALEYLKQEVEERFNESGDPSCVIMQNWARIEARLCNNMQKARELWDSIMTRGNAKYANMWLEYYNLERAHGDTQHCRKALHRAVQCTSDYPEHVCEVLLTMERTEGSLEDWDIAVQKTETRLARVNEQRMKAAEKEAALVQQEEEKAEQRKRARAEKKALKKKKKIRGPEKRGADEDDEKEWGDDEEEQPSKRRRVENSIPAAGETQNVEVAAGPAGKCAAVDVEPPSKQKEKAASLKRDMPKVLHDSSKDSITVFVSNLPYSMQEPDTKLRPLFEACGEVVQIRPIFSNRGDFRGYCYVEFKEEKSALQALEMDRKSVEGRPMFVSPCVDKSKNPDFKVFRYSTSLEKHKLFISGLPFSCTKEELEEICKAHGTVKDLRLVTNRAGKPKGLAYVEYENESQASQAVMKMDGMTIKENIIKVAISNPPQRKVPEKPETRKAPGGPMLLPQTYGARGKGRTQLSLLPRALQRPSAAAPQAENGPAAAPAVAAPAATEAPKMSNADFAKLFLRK
Nature of the experiment: pull-down; His pulldown: 2.5 μg GST or GST-MEPCE with 2.5 μg Tip110.His in 500 μl Binding Buffer (20 mM HEPES pH 7.9, 150 mM NaCl, 0.5 mM EDTA, 10% glycerol, 0.1% Triton X-100, 1 mM DTT), Ni-NTA agarose beads; washes with 0.4 M NaCl; Western blot with anti-GST; both purified.

In experiment [4] the target is T2, Flag-tagged MEPCE (methylphosphate capping enzyme) (UniProt Q7L2J0).
T2 sequence: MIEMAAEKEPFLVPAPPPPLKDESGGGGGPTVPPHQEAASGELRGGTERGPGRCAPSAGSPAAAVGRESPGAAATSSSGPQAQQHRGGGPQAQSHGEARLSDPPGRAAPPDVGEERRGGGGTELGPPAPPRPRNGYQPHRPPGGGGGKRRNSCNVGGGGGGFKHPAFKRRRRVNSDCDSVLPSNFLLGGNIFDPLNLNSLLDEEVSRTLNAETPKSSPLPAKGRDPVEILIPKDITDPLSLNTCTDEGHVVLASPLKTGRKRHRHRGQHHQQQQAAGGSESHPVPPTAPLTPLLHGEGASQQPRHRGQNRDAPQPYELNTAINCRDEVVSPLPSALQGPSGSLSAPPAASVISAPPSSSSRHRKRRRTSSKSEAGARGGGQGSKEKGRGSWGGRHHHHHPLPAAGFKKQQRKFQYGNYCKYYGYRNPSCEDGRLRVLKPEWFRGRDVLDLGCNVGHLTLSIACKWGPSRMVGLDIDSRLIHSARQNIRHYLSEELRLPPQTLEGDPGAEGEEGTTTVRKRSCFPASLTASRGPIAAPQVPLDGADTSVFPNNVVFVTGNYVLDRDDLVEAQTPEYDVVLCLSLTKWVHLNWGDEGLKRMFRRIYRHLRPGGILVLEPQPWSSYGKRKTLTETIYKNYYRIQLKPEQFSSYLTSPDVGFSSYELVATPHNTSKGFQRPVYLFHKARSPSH
Nature of the experiment: co-IP; 293T transfected with pMEPCE.Flag; whole cell lysates, IP with anti-Flag antibody (isotype IgG and pcDNA3 as controls), Western blot with anti-Tip110.

A further experiment concerns the target T3, GST-MEPCE fusion protein (UniProt Q7L2J0).
T3 sequence: T2 sequence
The experiment is described as follows: pull-down; GST pulldown: 2.5 μg GST or GST-MEPCE with 2.5 μg Tip110.His in 500 μl Binding Buffer (20 mM HEPES pH 7.9, 150 mM NaCl, 0.5 mM EDTA, 10% glycerol, 0.1% Triton X-100, 1 mM DTT), glutathione agarose beads; washes with 0.4 M NaCl; Western blot with anti-His; both purified.

These are yes or no findings as the source states them, for the method shown. For part of these data: In cells and extracts the contact can be indirect. Some entries that bind do so weakly or less than the wild type. For part of these data: Where a sequence is shown, tags or fusion partners need not be part of it.

The text below walks through data of PMC8612609.

With “Cerulean.HEXIM1 and Venus.HEXIM1 (two differently tagged copies of wild-type HEXIM1) (from UniProt O94992 1-359)”, in experiment [1], the binding result was “binds”. Take “HEXIM1, endogenous (from UniProt O94992 1-359)”: the binding entry in experiment [2] is reported as “binds”. Turning to “purified recombinant HEXIM1 protein (from UniProt O94992 1-359)”, in experiment [3], the binding entry is listed as “binds”.

B1: GST-MEPCE fusion protein (protein, UniProt Q7L2J0 1-689)
chain: T2 sequence
With B1, the binding entry with recombinant Tip110 His is “binds”.

B2: HIV-1 Tat-interacting protein of 110 kDa (Tip110), endogenous (protein, UniProt Q15020 1-963)
chain: T1 sequence
Regarding B2, the binding entry in experiment [4] is recorded as “binds”.

B3: recombinant Tip110 His (protein, UniProt Q15020 1-963)
chain: T1 sequence
In the case of B3, the binding result with GST-MEPCE fusion protein is “binds”.
